Results reported in patent publication USRE46170E1 (Novo Nordisk A/S, priority 2005, dated 2016).
“And” between values parts separate entries of the source, which are not always exact repeats. Identical values can stand only once.

Test: general procedure: peptide synthesis; polystyrene resin with 2-chlorotrityl chloride linker (1.4 mmol/g), used for the acyl side-chain building block
Conditions: lipidation step
[1] = analytical HPLC (C4, neutral and acidic buffers), run 1

Substance | final HPLC purity (acidic HPLC, 214 nm) | final HPLC purity (neutral HPLC, 214 nm) | final HPLC purity [1] | further results
N^εB29-{4-[2-(4-carboxymethylphenyl)ethyl]phenyl}acetyl-γ-L-glutamyl desB30 human insulin | 98.8% | 99.44% | – | –
N^εB29-(3-Carboxy-5-octadecandioylaminobenzoyl) des(B30) human insulin | – | – | 96.0% and 100% | –
N^εB29-[3-Carboxy-5-(octadecandioyl-N-carboxyethylglycin)amino-benzoyl] desB30 insulin | – | – | – | final HPLC purity (acidic HPLC): 100%; final HPLC purity (neutral HPLC): 93.8.5%; step yield (overall for coupling and hydrolysis): 18%
N^εB29-(3-carboxy-4-hexdecandioylaminobenzoyl) desB30 human insulin | 83.4% | 92.6% | – | –
N^εB29-(3-Carboxy-5-hexadecandioylamino-benzoyl) desB30 human insulin | – | – | 96.5% and 100% | –
